The values that follow come from patent US11530240B2, “Catheter injectable cyclic peptide pro-gelators for myocardial tissue engineering” (The Regents of the University of California, priority 2017, dated 2022).

This data set can be described thus: Experimental circular dichroism (CD) of SAPs. The note with it: 500 μM SAP in 10 mM Tris, pH 7.4. Type of data set: physicochemical.

For “C(KLDL)3PLGLAGC (SEQ ID NO: 6) (CKLDLKLDLKLDLPLGLAGC) [KLDL (SEQ ID NO:5)Linear, modified linear SAP primed for cyclization, no fluorescent label]”, the “Obs. CD Inference (β-sheet orientation)” value is given as “Parallel” and the “Obs. CD π→π* Peak” value was “Blue-shifted”. In the same order, the values of “LAG(KFDF)3PLG (SEQ ID NO: 9) (LAGKFDFKFDFKFDFPLG) [KFDF (SEQ ID NO:1)Control, control SAP representing enzymatically cleaved progelator with flanking substrate residues]” are “Parallel” and “Blue-shifted”. The corresponding values for “LAG(KLDL)3PLG (SEQ ID NO: 8) (LAGKLDLKLDLKLDLPLG) [KLDL (SEQ ID NO:5)Control, control SAP representing enzymatically cleaved progelator with flanking substrate residues]” are “Parallel” and “Blue-shifted”. The corresponding values for “C(KFDF)3PLGLAGC (SEQ ID NO: 7) (CKFDFKFDFKFDFPLGLAGC) [KFDF (SEQ ID NO:1)Linear, modified linear SAP primed for cyclization, no fluorescent label]” are “parallel” and “Blue-shifted”. For the substance “(KFDF)3 (SEQ ID NO: 4) (KFDFKFDFKFDF) [KFDF (SEQ ID NO:1), unmodified SAP, analogue of KLDL with Phe for Leu]”, the “Obs. CD Inference (β-sheet orientation)” value is listed as “Antiparallel”. With “(KLDL)3 (SEQ ID NO: 3) (KLDLKLDLKLDL) [KLDL (SEQ ID NO:5), reference compound]”, the “Obs. CD Inference (β-sheet orientation)” value is reported as “antiparallel”.
